What all share (experiment): log2 fold change, soluble protein after heating vs DMSO (PISA); higher = thermal stabilisation; K562 lysate, 10 uM; active = over 0.2 and 3.5 SD of the protein, either way, in both replicates (recomputed)
Compound in assay [1]: Cc1sc2c(c1C)C(c1ccc(Cl)cc1)=N[C@@H](CC(=O)OC(C)(C)C)c1nnc(C)n1-2
Put shortly:
(§1)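 A 30 min treatment with 10 μM compound was applied to crude K562 extract at 1 mg/mL protein in PBS pH 7.4 with 1 mM MgCl2. Heating for 3 min spanned 48°C-58°C, after which aliquots were pooled, adjusted to 0.5% NP-40 at 4°C and spun at 21,000xg for 90 min. TMTpro 16plex LC-MS/MS of the supernatant, with channel sums equalised, gave values recorded as log-two fold change in thermal stability against solvent controls, from duplicates.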

Chains of the proteins cited; added tags and fusions are not shown. Lines headed by an entry give the natural chain unless they say otherwise; changes in a name come on top.
UniProt O15527, whole entry, looked up: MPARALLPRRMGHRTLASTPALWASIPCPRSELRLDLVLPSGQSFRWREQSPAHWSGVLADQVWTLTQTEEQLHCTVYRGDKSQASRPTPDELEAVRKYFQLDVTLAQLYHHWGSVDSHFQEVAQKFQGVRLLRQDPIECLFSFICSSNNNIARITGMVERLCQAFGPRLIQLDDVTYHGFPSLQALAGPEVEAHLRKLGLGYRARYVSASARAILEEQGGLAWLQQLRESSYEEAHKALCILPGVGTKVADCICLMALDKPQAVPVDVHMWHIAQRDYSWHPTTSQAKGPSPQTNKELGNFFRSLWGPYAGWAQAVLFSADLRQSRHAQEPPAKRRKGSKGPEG
UniProt Q9UBD5: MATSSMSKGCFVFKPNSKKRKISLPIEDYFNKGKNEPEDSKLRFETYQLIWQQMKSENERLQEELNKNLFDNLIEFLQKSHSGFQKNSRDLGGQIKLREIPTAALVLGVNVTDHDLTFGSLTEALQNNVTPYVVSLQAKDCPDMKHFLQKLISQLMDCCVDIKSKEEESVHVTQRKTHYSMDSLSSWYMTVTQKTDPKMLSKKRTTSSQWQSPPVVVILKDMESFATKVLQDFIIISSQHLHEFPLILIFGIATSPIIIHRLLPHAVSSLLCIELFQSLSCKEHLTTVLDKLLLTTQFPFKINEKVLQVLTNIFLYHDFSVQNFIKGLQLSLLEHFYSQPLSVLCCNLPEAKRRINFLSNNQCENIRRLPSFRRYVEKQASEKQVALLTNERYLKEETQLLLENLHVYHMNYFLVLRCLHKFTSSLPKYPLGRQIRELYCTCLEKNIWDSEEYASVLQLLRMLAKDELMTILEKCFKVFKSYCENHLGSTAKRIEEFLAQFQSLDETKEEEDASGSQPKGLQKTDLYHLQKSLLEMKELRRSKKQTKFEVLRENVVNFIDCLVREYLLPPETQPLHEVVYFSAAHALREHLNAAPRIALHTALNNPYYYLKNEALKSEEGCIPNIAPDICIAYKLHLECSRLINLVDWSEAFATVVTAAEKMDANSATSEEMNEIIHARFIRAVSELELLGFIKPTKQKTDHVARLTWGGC
UniProt O60829: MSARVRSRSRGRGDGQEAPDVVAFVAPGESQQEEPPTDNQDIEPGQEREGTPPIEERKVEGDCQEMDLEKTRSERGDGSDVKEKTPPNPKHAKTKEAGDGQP
UniProt Q13438: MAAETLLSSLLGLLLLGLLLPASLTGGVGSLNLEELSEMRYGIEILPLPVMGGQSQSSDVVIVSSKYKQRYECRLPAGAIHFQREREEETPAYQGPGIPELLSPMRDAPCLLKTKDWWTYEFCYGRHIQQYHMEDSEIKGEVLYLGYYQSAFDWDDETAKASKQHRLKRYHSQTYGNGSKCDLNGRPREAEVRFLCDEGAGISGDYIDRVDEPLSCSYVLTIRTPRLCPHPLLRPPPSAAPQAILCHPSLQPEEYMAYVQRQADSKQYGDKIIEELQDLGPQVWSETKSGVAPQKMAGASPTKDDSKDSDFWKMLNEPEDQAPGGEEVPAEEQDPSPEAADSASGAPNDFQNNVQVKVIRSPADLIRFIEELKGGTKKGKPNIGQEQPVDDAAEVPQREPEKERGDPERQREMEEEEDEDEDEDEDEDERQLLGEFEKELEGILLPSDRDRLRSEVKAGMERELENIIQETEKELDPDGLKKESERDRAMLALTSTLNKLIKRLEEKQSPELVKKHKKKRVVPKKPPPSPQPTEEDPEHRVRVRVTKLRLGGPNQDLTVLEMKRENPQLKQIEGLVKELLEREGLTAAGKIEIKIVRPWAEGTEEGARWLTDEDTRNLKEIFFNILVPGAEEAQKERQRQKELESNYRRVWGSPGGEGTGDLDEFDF

Compound in assay [2]: c1ccc([C@@H]2C[C@H]2NC2CCNCC2)cc1
Put shortly: as §1

Compound in assay [3]: C1=CC=C(C=C1)[C@H](COC2=CC3=C(C=C2)NC(=O)N3)NC(=O)C4=CC=CN(C4=O)CC5=CC(=C(C=C5)F)F
The procedure, abridged: as §1

Compound in assay [4]: CC1=C(SC2=C1C(=N[C@H](C3=NN=C(N32)C)CC(=O)N)C4=CC=C(C=C4)Cl)C
The procedure, abridged: as §1

Compound in assay [5]: CC1=C2C(=CC=C1)N=C(N(C2=O)C3=CC=CC=C3C)CN4C=NC5=C(N=CN=C54)N
The procedure, abridged:
as §1

This is one part of the list.

As for OGG1 isoform 4 (UniProt O15527), in assay [1], the log2 fold change was inactive: 0.246.
Consider ORC3 (UniProt Q9UBD5), for which the log2 fold change in assay [2] is inactive: -0.276.
Consider PAGE4 (UniProt O60829), for which the log2 fold change in assay [3] is inactive: 0.024; in assay [4], inactive: -0.11; in assay [1] it was inactive: -0.143; in assay [2], inactive: 0.118.
On to OS9 isoform 7 (UniProt Q13438), for which the log2 fold change in assay [2] is inactive: -0.141.
With PABPC1 (UniProt H0YAR2), the log2 fold change is inactive: 0.043 in assay [3], inactive: -0.06 in assay [4] and inactive: -0.148 in assay [2].
As for OCIAD1 (UniProt D6RDK6), the log2 fold change in assay [5] is inactive: 0.05.

(Values after the supplement of paper PMC10849652.)
